The values below come from publication PMC4004385.

Amino acid sequences for entries named in this document (tags omitted).
UniProt Q5NQ65: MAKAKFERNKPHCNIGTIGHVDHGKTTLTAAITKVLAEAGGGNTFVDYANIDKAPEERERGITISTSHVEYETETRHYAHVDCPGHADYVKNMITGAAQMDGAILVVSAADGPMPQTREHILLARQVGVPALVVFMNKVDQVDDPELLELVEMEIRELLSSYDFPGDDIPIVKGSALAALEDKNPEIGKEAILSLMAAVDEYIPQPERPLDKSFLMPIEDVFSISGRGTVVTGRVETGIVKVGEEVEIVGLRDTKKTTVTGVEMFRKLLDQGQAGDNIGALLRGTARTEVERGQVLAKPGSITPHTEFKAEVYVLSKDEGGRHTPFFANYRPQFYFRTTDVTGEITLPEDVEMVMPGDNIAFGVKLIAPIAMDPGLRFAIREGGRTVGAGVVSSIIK
UniProt Q5NPS6: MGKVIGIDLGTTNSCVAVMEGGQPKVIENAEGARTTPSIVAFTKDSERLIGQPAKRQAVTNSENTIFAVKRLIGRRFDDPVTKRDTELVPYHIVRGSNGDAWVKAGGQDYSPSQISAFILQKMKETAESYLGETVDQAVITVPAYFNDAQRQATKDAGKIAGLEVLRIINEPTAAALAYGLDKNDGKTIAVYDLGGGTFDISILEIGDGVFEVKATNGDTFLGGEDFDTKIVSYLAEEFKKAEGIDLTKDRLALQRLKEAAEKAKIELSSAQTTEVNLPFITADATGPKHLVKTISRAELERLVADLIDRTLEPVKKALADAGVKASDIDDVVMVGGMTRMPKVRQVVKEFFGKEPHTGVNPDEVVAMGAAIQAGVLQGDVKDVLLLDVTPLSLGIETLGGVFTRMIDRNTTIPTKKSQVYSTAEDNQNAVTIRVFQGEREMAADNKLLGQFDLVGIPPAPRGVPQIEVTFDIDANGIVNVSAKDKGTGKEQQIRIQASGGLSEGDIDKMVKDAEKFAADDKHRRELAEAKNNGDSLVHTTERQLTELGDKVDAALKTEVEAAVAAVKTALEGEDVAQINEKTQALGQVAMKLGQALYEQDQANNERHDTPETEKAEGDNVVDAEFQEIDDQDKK

What all share (experiment): affinity purification with mass spectrometry; GST or GST-fusion bait expressed from pZ7-GST vectors in Z. mobilis ATCC 29191 (semi-aerobic culture); cleared lysate on a 1 ml glutathione sepharose GSTrap FF column with ice cooling; binding buffer 25 mM Tris-HCl pH 7.4, 200 mM NaCl, 1 mM EDTA, 1.5 mM beta-mercaptoethanol; eluted with 10 mM reduced glutathione; bands cut from Coomassie-stained SDS-PAGE gels and identified by peptide mass fingerprinting and LC-MS/MS; wild-type strain as negative control

The target in assay [1] is T1, recombinant GST-KdsA fusion protein (2-dehydro-3-deoxyphosphooctonate aldolase KdsA, ZZ6_1604) (Zymomonas mobilis ATCC 29191) (UniProt Q5NME8).
T1 sequence: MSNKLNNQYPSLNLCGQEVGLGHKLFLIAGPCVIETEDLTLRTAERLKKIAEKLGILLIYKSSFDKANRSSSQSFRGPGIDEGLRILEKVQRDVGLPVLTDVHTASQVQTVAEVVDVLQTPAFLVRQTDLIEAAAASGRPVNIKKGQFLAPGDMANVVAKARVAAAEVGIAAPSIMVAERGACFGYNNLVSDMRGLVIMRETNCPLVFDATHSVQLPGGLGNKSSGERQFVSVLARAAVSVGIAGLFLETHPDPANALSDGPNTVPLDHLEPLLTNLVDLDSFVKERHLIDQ

Assay [2] has as its target T2, recombinant GST-AcpP fusion protein (acyl-carrier protein AcpP, ZZ6_0066) (Zymomonas mobilis ATCC 29191) (UniProt Q5NN07).
T2 sequence: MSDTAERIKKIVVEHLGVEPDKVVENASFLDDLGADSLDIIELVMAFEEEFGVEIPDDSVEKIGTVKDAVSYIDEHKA

For assay [3], the target named is Recombinant GST (heterologous recombinant GST expressed from pZ7-GST).

No constants are given. Whether binding was seen depends on the method and setting. In cells and extracts the contact can be indirect. Here binding means that the protein was enriched with, or labelled near, the bait; the list need not be complete. A no says only that the protein was not detected with the bait. For part of these data: Where a sequence is shown, tags or fusion partners need not be part of it.

Consider “glyoxalase/bleomycin resistance protein/dioxygenase (Glo, ZZ6_1397; 128 aa) (enzyme)”, for which the binding entry in assay [1] and in assay [2] was “no binding” each time.
Regarding “short-chain dehydrogenase/reductase SDR (FabI) (enzyme)”, the binding entry in assay [2] is given as “no binding”.
Regarding “translation elongation factor Tu (Tuf; ZZ6_0750) (from UniProt Q5NQ65 1-397)”, the binding entry in assay [1] is given as “binds”; in assay [2], “no binding”.
In the case of “chaperone protein DnaK (ZZ6_0619) (from UniProt Q5NPS6 1-635)”, the results for the binding result in assay [1] and in assay [2] were “binds” and “no binding”, respectively.
“3-oxoacyl-(acyl-carrier-protein) synthase III (FabH) (enzyme)”: in assay [2], the binding result is recorded as “no binding”.
The same measure, in the same setting: the result for “3-oxoacyl-(acyl-carrier-protein) synthase 2 (FabF) (enzyme)” reads “no binding”.

B1: cytidine 5'-triphosphate (CTP) synthase (PyrG; ZZ6_0800) (enzyme, UniProt Q5NQB9 1-544)
chain: MARFIFITGGVVSSLGKGLMAASLAALLQERGFRVRIRKFDPYLNVDPGTMSPYQHGEVYVTDDGAETDLDLGHYERFSGVPSRRSDNITSGRIYQNIIAKERRGDYLGATVQVIPHVTDAIKDFARDDTDDLDFVLCEIGGTVGDIESLPFIEAIRQLKNDLGRGNVVFVHLTLVPYIAAAGELKTKPTQHSVRDLTSFGIQPDVLVCRTEHPLPDSERSKIALFCNVPKEAVIPALDAKSIYDVPLHYHAEGLDKAVLSAFGLNIETPLDLHRWKEISDRLANPEGEVTIGVVGKYVGLQDAYKSLHEALVHGGIANRVKVNIVWLDAEMFEGNNPEAAEALSSLHAILVPGGFGERGSEGKIAAVKFAREHKVPFFGICLGMQMACIEGARNTAGLKKASSSEFGPSEEPVIGLITEWERDGEREERAADGDLGGTMRLGAYPAVLKAGSQVAEIYNSREITERHRHRYEVNIHYKEPLEKGGLVFSGMSPDGLLPEIVERPDHPWFIGVQFHPELKSKPFDPHPLFSDFVAAALKQSRLV
Regarding B1, the binding result in assay [3] is given as “no binding”; in assay [1] it was “binds”; in assay [2], “no binding”.

B2: (3R)-hydroxymyristoyl-ACP dehydratase (FabZ; ZZ6_0182) (enzyme, UniProt Q9X5F5 1-158)
chain: MTETTEKVESIGPLDVKRVMAALPHRFPMLLVDRVETLIPGEKIVAIKAVTINEPFFTGHFPGNPIMPGVLIVEALAQAAGVLAIESLGLTGTGKLVYFMAINETKFRIPVEPGILLRLEVEFLQKRAKICKFKARALIEDKVAAETEFTAMIADPAN
As to B2, the values for the binding entry in assay [3], in assay [1] and in assay [2] were “no binding”, “no binding” and “binds”, respectively.

B3: holo-acyl-carrier-protein synthase (AcpS; ZZ6_1409) (enzyme, UniProt Q5NLS7 1-134)
chain: MIIGIGTDLCNIDRITTILGKKESGRFIKRLFSCEEIEASSAFSMTKAAFFAKRFAAKEAFVKALGTGFRHSISFQDISISNDSLGAPKVNISGKAALLLEEKKPPRHTLSIHLSLSDDHPWALAFVVIEACPE
With B3, the binding result in assay [3] is reported as “no binding”; in assay [1], “no binding”; in assay [2] it was “binds”.

B4: pyruvate decarboxylase (PDC; ZZ6_1712) (enzyme, UniProt P06672 1-568)
chain: MSYTVGTYLAERLVQIGLKHHFAVAGDYNLVLLDNLLLNKNMEQVYCCNELNCGFSAEGYARAKGAAAAVVTYSVGALSAFDAIGGAYAENLPVILISGAPNNNDHAAGHVLHHALGKTDYHYQLEMAKNITAAAEAIYTPEEAPAKIDHVIKTALREKKPVYLEIACNIASMPCAAPGPASALFNDEASDEASLNAAVEETLKFIANRDKVAVLVGSKLRAAGAEEAAVKFADALGGAVATMAAAKSFFPEENPHYIGTSWGEVSYPGVEKTMKEADAVIALAPVFNDYSTTGWTDIPDPKKLVLAEPRSVVVNGIRFPSVHLKDYLTRLAQKVSKKTGALDFFKSLNAGELKKAAPADPSAPLVNAEIARQVEALLTPNTTVIAETGDSWFNAQRMKLPNGARVEYEMQWGHIGWSVPAAFGYAVGAPERRNILMVGDGSFQLTAQEVAQMVRLKLPVIIFLINNYGYTIEVMIHDGPYNNIKNWDYAGLMEVFNGNGGYDSGAGKGLKAKTGGELAEAIKVALANTDGPTLIECFIGREDCTEELVKWGKRVAAANSRKPVNKLL
Regarding B4, the binding entry in assay [3] is on record as “no binding”; in assay [1], “no binding”; in assay [2] it was “binds”.

B5: glyceraldehyde-3-phosphate dehydrogenase (G3P; ZZ6_1034) (enzyme, UniProt P09316 1-337)
chain: MAVKVAINGFGRIGRLAARAILSRPDSGLELVTINDLGSVEGNAFLFKRDSAHGTYPGTVTTEGNDMVIDGKKIVVTAERDPANLPHKKLGVDIVMECTGIFTNTEKASAHLTAGAKKVLISAPAKGDVDRTVVYGVNHKDLTADDKIVSNASCTTNCLAPVLHVLQQKIGIVRGLMTTVHSFTNDQRILDQIHSDLRRARTASASMIPTSTGAARAVALVIPELKGKLDGISIRVPTPDVSLVDFTFVPQRDTTAEEINSVLKAAADTGDMTGVLGYTDEPLVSRDFYSDPHSSTVDSRETAVLEGKLARVVAWYDNEWGFSNRMVDTAAQMAKTL
Take B5: the binding entry in assay [3] was “no binding”; in assay [1], “no binding”; in assay [2] it was “binds”.

B6: translation elongation factor Ts (Tsf; ZZ6_0173) (protein, UniProt Q9X5E8 1-307)
chain: MAEITAAAVKALRERTGAGMMDCKKALNEANGEMEAAVDWLRAKGLAAAAKKSGRQAAEGLVGVMIDGTKGAVLEVNSETDFVAKNEKFQDFVKGVTALVLEHGSDIDTLSKAPHPAGGSVNDVLTANIATIGENQALRRAALLEVENGVVVPYIHNQVAPGVGKIGVLVALESEAPSDFLESLGKQIAMHVAAATPLALDEDSLDDAAVERERAIAQEKAAESGKPAEIVTRMVEGAVAKYRKENALLSQIFVVDGKTRVSDVVSKAAKETGKPITLKQFVRFQLGEGIEKQETDFAAEVAAAAGV
In the case of B6, the results for the binding result in assay [3], in assay [1] and in assay [2] were “no binding”, “binds” and “no binding”, respectively.
